PubChem BioAssay AID1053208 | Peter MacCallum Cancer Centre | 2014
The deposit covers about 17,000 reagents; shown is a part drawn at random. In the full data, 788 (4.7%) got an active call. 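Calls rest on z-score classes alone; an extra cut-off of viability at most 70% of control was not applied to them.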 The numbers tell different reagents against one gene apart. No sequences are given here.

- Purpose: 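Synthetic lethal interactions between gene loss and doxorubicin in osteosarcoma cells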 (primary screen)
- Cell system: mouse osteosarcoma cells, early-passage culture from an engineered mouse model of fibroblastic bone tumour
- Knock-down reagent: siRNA pool against mouse genes, 40 nM
- Duration: about 120 h (48 h before drug, then 72 h with drug)
- Conditions: doxorubicin 100 nM for 72 h, roughly 30-40% inhibitory dose
- Measured: 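Viability read as ATP luminescence after 72 h of 100 nM doxorubicin or none, duplicate wells averaged, scaled to non-targeting siRNA, then expressed as robust z-scores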
- Reading the numbers: viability z-score with doxorubicin and doxorubicin viability vs non-targeting: higher = more viable cells under doxorubicin; viability z-score without drug: higher = more viable cells with knock-down alone; z-score of drug to no-drug ratio: higher = less drug sensitisation by knock-down
- Rule for the call: 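a pool counts as active when its viability z-score with doxorubicin is -2 or below and its z-score without drug lies between -2 and 2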

| target | reagent no. | combined z-score class | viability z-score with doxorubicin | viability z-score without drug | z-score of drug to no-drug ratio | doxorubicin viability vs non-targeting | activity call |
| --- | --- | --- | --- | --- | --- | --- | --- |
| Bscl2 (BSCL2 lipid droplet biogenesis associated, seipin) | 1 | no change with or without drug | -0.22 | 0.51 | -0.45 | 0.92 | inactive |
| Ube3a (ubiquitin protein ligase E3A) | 1 | no change with or without drug | -0.67 | -0.34 | -0.34 | 0.88 | inactive |
| Evpl (envoplakin) | 1 | no change with or without drug | 0.11 | 1.52 | -0.79 | 0.95 | inactive |
| Pkp1 (plakophilin 1) | 1 | no change with or without drug | 0 | -0.51 | 0.45 | 0.94 | inactive |
| Nmrk1 (nicotinamide riboside kinase 1) | 1 | no change with or without drug | 0.79 | 1.52 | -0.11 | 1.01 | inactive |
| Aqp11 (aquaporin 11) | 1 | no change with or without drug | -0.45 | -0.51 | 0 | 0.9 | inactive |
| Or2ag2b (olfactory receptor family 2 subfamily AG member 2B) | 1 | no change with or without drug | -0.34 | -0.51 | 0.11 | 0.91 | inactive |
| Fam135b (family with sequence similarity 135, member B) | 1 | no change with or without drug | 0.34 | 0.34 | 0.22 | 0.97 | inactive |
| Fam135b (family with sequence similarity 135, member B) | 2 | no change with or without drug | -1.01 | -1.18 | -0.11 | 0.85 | inactive |
| Hoxc5 (homeobox C5) | 1 | no change with or without drug | -0.9 | -0.84 | -0.22 | 0.86 | inactive |
| Teddm2 (transmembrane epididymal family member 2) | 1 | no change with or without drug | -1.12 | -0.51 | -0.79 | 0.84 | inactive |
| Alg5 (ALG5 dolichyl-phosphate beta-glucosyltransferase) | 1 | no change with or without drug | 0 | 1.18 | -0.67 | 0.94 | inactive |
| Slc5a6 | 1 | no change with or without drug | -0.9 | 0.17 | -0.9 | 0.86 | inactive |
| A530013C23Rik (RIKEN cDNA A530013C23 gene) | 1 | no change with or without drug | 0.22 | 0.17 | 0.22 | 0.96 | inactive |
| Syce2 (synaptonemal complex central element protein 2) | 1 | no change with or without drug | -0.67 | 0.51 | -0.9 | 0.88 | inactive |
| Or5ac24 (olfactory receptor family 5 subfamily AC member 24) | 1 | no change with or without drug | 1.69 | -0.67 | 2.47 | 1.09 | inactive |
| Tmc3 (transmembrane channel-like gene family 3) | 1 | no change with or without drug | 0.79 | 1.52 | -0.11 | 1.01 | inactive |
| Ms4a8a (membrane-spanning 4-domains, subfamily A, member 8A) | 1 | no change with or without drug | 0.22 | -1.69 | 1.69 | 0.96 | inactive |
| Grin2c (glutamate receptor, ionotropic, NMDA2C (epsilon 3)) | 1 | no change with or without drug | -0.67 | -1.85 | 0.79 | 0.88 | inactive |
| Pgf (placental growth factor) | 1 | no change with or without drug | 1.12 | 1.01 | 0.56 | 1.04 | inactive |
| Gpaa1 (GPI anchor attachment protein 1) | 1 | no change with or without drug | 0.56 | 0.84 | 0.11 | 0.99 | inactive |
| Kbtbd2 (kelch repeat and BTB (POZ) domain containing 2) | 1 | no change with or without drug | -0.11 | 0.67 | -0.45 | 0.93 | inactive |
| Tle2 (transducin-like enhancer of split 2) | 1 | low cell count without drug only | -0.79 | -2.02 | 0.79 | 0.87 | inactive |
| Cr2 (complement receptor 2) | 1 | no change with or without drug | -0.67 | 0 | -0.56 | 0.88 | inactive |
| Pappa (pregnancy-associated plasma protein A) | 1 | no change with or without drug | -0.22 | -0.84 | 0.45 | 0.92 | inactive |
| Fads1 (fatty acid desaturase 1) | 1 | no change with or without drug | 0.79 | 0.17 | 0.79 | 1.01 | inactive |
| Pcnx1 (pecanex 1) | 1 | no change with or without drug | 0.45 | -0.34 | 0.79 | 0.98 | inactive |
| Rpl23 (ribosomal protein L23) | 1 | low cell count with and without drug | -6.97 | -5.23 | -5.4 | 0.32 | inactive |
| Fpr1 (formyl peptide receptor 1) | 1 | no change with or without drug | -0.9 | -1.01 | -0.11 | 0.86 | inactive |
| Snap91 (synaptosomal-associated protein 91) | 1 | no change with or without drug | 1.12 | 0.51 | 0.9 | 1.04 | inactive |
| Ly6e (lymphocyte antigen 6 family member E) | 1 | no change with or without drug | 0.79 | -0.84 | 1.57 | 1.01 | inactive |
| Nsd2 (nuclear receptor binding SET domain protein 2) | 1 | no change with or without drug | -1.35 | -0.84 | -0.79 | 0.82 | inactive |
| Zbtb8os (zinc finger and BTB domain containing 8 opposite strand) | 1 | no change with or without drug | -0.9 | -0.17 | -0.79 | 0.86 | inactive |
| Neurod4 (neurogenic differentiation 4) | 1 | no change with or without drug | -1.24 | -0.17 | -1.12 | 0.83 | inactive |
| Sfn (stratifin) | 1 | no change with or without drug | 0.45 | 1.01 | -0.11 | 0.98 | inactive |
| Tagln3 (transgelin 3) | 1 | no change with or without drug | 0.79 | 0.34 | 0.67 | 1.01 | inactive |
| Ctrl (chymotrypsin-like) | 1 | no change with or without drug | 1.35 | -0.17 | 1.69 | 1.06 | inactive |
| Dennd2b (DENN domain containing 2B) | 1 | no change with or without drug | -0.11 | 0.17 | -0.11 | 0.93 | inactive |
| Itga7 (integrin alpha 7) | 1 | no change with or without drug | 0.22 | -0.51 | 0.67 | 0.96 | inactive |
| Mtus1 (mitochondrial tumor suppressor 1) | 1 | no change with or without drug | -0.22 | 0.17 | -0.22 | 0.92 | inactive |
| Mid2 (midline 2) | 1 | no change with or without drug | 1.57 | 1.18 | 0.9 | 1.08 | inactive |
| H2-M10.2 (histocompatibility 2, M region locus 10.2) | 1 | no change with or without drug | -0.9 | 0.17 | -0.9 | 0.86 | inactive |
| Fpr-rs4 (formyl peptide receptor, related sequence 4) | 1 | no change with or without drug | 0.67 | 0.34 | 0.56 | 1 | inactive |
| Clec7a (C-type lectin domain family 7, member a) | 1 | no change with or without drug | -1.01 | -1.18 | -0.11 | 0.85 | inactive |
| Eny2 (ENY2 transcription and export complex 2 subunit) | 1 | low cell count with doxorubicin only | -3.6 | -1.01 | -3.15 | 0.62 | active |
| Asb11 (ankyrin repeat and SOCS box-containing 11) | 1 | no change with or without drug | -0.45 | -0.17 | -0.22 | 0.9 | inactive |
| 3110040N11Rik (RIKEN cDNA 3110040N11 gene) | 1 | no change with or without drug | 1.35 | 0.51 | 1.12 | 1.06 | inactive |
| Nxpe2 (neurexophilin and PC-esterase domain family, member 2) | 1 | no change with or without drug | 0.45 | 0.34 | 0.34 | 0.98 | inactive |
| Mgat3 (mannoside acetylglucosaminyltransferase 3) | 1 | no change with or without drug | -0.79 | -1.18 | 0.11 | 0.87 | inactive |
| Or2a14 (olfactory receptor family 2 subfamily A member 14) | 1 | no change with or without drug | -0.22 | -0.84 | 0.45 | 0.92 | inactive |

Entries above with an active call (1):
| target | reagent no. | combined z-score class | viability z-score with doxorubicin | viability z-score without drug | z-score of drug to no-drug ratio | doxorubicin viability vs non-targeting | activity call |
| --- | --- | --- | --- | --- | --- | --- | --- |
| Eny2 (ENY2 transcription and export complex 2 subunit) | 1 | low cell count with doxorubicin only | -3.6 | -1.01 | -3.15 | 0.62 | active |
